Reference: PMC3983030, “Ras GTPase-Like Protein MglA, a Controller of Bacterial Social-Motility in Myxobacteria, Has Evolved to Control Bacterial Predation by Bdellovibrio” (PLoS Genetics, 2014)

Biological target: T1, MglABd with a C-terminal His8 tag (Bd3734) (Bdellovibrio bacteriovorus HD100) (UniProt Q6MH29)
T1 sequence: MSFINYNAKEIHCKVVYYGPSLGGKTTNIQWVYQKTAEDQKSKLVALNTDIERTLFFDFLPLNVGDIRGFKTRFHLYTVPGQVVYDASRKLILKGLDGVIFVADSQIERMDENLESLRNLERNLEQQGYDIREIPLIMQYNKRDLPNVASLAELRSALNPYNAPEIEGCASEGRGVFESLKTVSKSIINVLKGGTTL
Test: affinity purification with mass spectrometry; whole cell lysate of the HI MglABd-His8 strain; His-tagged bait bound to TALON-NX cobalt-charged resin; differential SDS-PAGE bands excised and analysed by LC-MS/MS; control HID13 without the His-tag

binding: binds
B1: Bd2492, tetratricopeptide repeat (TPR) domain protein (TPRBd) (protein, UniProt Q6MKB3 1-353)
chain: MSTYIELEIQNLLNQGSDQNIDLAEVATRLVSSIESSPDHFTLDNITALSRFLIQSGNELVLVEFVLRHLENESFPIPWPYFLEALSAFSEELDEKSVRALIDGIEEDGAQEEASRSLALRQTIQSLGEWRSNRKYKIHKDYLNNKRLLLDQLITLRTQQLYEQEKSLLARLQKLYPGDSDIRREVNEHKQRYALEILSRRTPRSRGVKTEDFSPKDPETEQALQVLMQSMHEHAETDPSMAFDFAIAAYMLESYEDALSLLSFSDESETLIWFRLEVLLKCRRFVELLTDLAKVEVVFAHEPETFFATAYLRAQALWGLGQKHTAIEVMEGLLAARPHYRAASALLSIWGGQ

Results are given in words; binding and its absence hold for the method and conditions named. In cells and extracts the contact can be indirect. These calls come from enrichment with a bait or labelling near it, and not all partners need be listed. Tags and fused reporters may be left off the sequences shown.
